Earlier results in patent US20190282591A1, “FINASTERIDE AND SILDENAFIL COMPOSITIONS AND APPLICATIONS” (BLUE GOOSE DRUGS INC., priority 2018, published 2019).
Some of these results come from one statement about several compounds together. For at least one compound, name, drawing or mass did not settle the structure.

Test system: Male Pattern Hair Loss (MPHL)

CC(C)(C)NC(=O)[C@H]1CC[C@H]2[C@@H]3CC[C@H]4NC(=O)C=C[C@]4(C)[C@H]3CC[C@]12C [finasteride, (5α,17β)-N-(1,1-dimethylethyl)-3-oxo-4-azaandrost-1-ene-17-carboxamide]
time within which hair gained or maintained is lost after ceasing therapy: 6-12 months

Nc1cc(N2CCCCC2)nc(N)[n+]1[O-] [minoxidil]
time within which hair gained or maintained is lost after ceasing therapy: 6-12 months
